Data as given in PMC7718735.
Changes are numbered by the printed parent chain. Results are given in words; binding and its absence hold for the method and conditions named. A result given as binding can be weak or reduced; the word gives no strength.

Columns and labels:
[1] = target: T1, Ima1 MYTH bait (S. pombe) (UniProt O13681); assay: two-hybrid; split-ubiquitin membrane yeast two-hybrid (MYTH) in S. cerevisiae; bait-Cub-LexA-VP16 strains mated with the arrayed Nub prey library, diploids spotted in quadruplicate on SD-leu-trp-ade-his with 25 mM 3-AT, imaged every 24 hr for 4 days; positive by a colony density cutoff
T1 sequence: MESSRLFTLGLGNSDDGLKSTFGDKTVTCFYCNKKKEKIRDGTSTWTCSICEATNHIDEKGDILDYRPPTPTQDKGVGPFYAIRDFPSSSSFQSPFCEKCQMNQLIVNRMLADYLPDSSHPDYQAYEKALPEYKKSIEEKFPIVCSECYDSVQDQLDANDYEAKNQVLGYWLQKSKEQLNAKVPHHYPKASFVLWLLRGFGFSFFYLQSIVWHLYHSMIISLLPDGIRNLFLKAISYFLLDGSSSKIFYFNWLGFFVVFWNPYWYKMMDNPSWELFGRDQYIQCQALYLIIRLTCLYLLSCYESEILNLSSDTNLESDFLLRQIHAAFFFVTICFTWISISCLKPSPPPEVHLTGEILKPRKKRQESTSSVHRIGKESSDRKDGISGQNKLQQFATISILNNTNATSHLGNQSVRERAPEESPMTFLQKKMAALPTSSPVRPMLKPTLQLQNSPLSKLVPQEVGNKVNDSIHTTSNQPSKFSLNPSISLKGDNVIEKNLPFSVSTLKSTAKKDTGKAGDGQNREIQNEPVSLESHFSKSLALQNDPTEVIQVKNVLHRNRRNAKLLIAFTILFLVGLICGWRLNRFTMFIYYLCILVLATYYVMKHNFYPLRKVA

[2] = target: T2, Lem2 MYTH bait (S. pombe) (UniProt Q10109); assay: as above
T2 sequence: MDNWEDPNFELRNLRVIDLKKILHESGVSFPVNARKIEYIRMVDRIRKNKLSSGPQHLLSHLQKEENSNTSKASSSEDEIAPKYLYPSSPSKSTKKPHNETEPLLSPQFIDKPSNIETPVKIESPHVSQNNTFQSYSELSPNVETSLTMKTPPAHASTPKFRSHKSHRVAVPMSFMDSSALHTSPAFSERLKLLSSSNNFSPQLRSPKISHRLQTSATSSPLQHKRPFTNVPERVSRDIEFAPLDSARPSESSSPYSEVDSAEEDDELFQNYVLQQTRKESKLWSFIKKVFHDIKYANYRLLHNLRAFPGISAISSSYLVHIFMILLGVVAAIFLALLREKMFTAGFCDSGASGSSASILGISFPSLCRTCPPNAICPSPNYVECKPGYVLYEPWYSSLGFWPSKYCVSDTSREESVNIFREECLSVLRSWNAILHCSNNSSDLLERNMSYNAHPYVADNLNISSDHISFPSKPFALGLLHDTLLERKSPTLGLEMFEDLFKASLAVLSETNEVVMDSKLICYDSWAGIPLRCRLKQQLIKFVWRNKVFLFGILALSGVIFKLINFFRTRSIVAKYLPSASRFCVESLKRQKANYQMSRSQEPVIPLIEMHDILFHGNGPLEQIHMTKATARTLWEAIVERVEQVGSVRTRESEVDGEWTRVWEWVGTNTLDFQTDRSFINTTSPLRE

[3] = target: T3, Cut11 L521F MYTH bait (S. pombe) (UniProt O13961); assay: as above
T3 sequence: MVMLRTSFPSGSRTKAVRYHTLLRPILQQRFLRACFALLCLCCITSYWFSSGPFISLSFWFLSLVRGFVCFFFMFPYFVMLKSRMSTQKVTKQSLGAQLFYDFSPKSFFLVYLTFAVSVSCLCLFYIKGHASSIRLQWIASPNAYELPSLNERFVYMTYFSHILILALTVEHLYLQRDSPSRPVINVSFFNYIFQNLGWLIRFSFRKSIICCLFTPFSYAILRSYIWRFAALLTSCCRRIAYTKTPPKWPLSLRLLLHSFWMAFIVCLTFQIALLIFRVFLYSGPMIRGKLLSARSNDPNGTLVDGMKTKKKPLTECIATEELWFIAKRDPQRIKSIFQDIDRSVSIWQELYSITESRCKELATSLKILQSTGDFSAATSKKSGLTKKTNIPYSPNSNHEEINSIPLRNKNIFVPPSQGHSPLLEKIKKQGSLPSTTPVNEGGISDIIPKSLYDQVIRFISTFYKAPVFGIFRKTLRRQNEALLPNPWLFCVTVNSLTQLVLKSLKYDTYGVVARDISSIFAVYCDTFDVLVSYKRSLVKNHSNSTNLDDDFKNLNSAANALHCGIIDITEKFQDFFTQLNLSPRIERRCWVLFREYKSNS

[4] = target: T4, Cut11 MYTH bait (wild type) (S. pombe) (UniProt O13961); assay: as above
T4 sequence: T3 sequence with F521L

[5] = target: T1, Ima1 MYTH bait (S. pombe); assay: two-hybrid; MYTH confirmation: bait and prey plasmids sequentially transformed into the haploid reporter strain SLJ5572; ten-fold dilution series on SD-leu-trp-ade-his + 25 mM 3-AT at 30°

| Substance | binding [1] | binding [2] | binding [3] | binding [4] | other results |
| --- | --- | --- | --- | --- | --- |
| SPAP14D8.05c MYTH prey (S. pombe) | binds | – | – | – | – |
| Stc1 MYTH prey (S. pombe) | – | no binding | – | – | – |
| Csi2 MYTH prey (S. pombe) | – | – | binds | binds | – |
| Nur1 MYTH prey (S. pombe) | – | binds | – | – | – |
| Pom34 MYTH prey (S. pombe) | binds | binds | binds | binds | – |
| Nup37 MYTH prey (S. pombe) | – | binds | binds | binds | – |
| Dms1 MYTH prey (S. pombe) | – | – | – | binds | – |
| Sei1 MYTH prey (S. pombe) | binds | – | – | – | binding [5]: binds |
| Tom13 MYTH prey (S. pombe) | – | binds weakly | – | – | – |
| Pet1 MYTH prey (S. pombe) | – | binds weakly | – | – | – |
